PubChem BioAssay AID504784 | Drosophila RNAi Screening Center | 2011
The screen tested about 17,000 reagents; this is an unselected part of those with a known target gene and a result. 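Each column is one replicate's B-score; the combined score over replicates was not deposited, so single values may mislead.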 A plus sign joins genes that one reagent is predicted to hit.

Assay: 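Search for regulators of lipid droplet storage in oleate-fed fly cells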 (primary screen)
System: Drosophila Kc167 embryonic cells
Knock-down reagent: long dsRNA against Drosophila genes, about 250 ng dsRNA per well
Duration: 4 days
Conditions: cells fed 400 µM oleic acid bound to BSA
Read-out: 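Microscope images give a droplet-to-nucleus area ratio, taken as log and converted to a screen-wide B-score; higher values mean greater lipid storage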
Scale: droplet/nuclear area B-score: higher = more stored lipid (overstorage)

| gene | dsRNA | droplet/nuclear area B-score, replicate 1 | droplet/nuclear area B-score, replicate 2 | droplet/nuclear area B-score, replicate 3 |
| --- | --- | --- | --- | --- |
| Pal1 (GeneID 36033) | DRSC06106 | 1.08 | 0.218 | – |
| rst (GeneID 31290) | DRSC17243 | 2.58 | -1.14 | – |
| rst (GeneID 31290) | DRSC18828 | 1.14 | 0.514 | – |
| CG15177 (GeneID 40810) | DRSC12557 | 0.577 | 0.564 | – |
| dy (GeneID 32130) | DRSC20325 | -1.57 | -0.292 | -0.437 |
| Tbc1d8-9 (GeneID 40361) | DRSC11820 | -0.00509 | -1.12 | 1.11 |
| CG12069 (GeneID 43643) | DRSC14470 | -0.485 | -1.57 | – |
| anchor (GeneID 39965) | DRSC10861 | -1.51 | -0.208 | 0.827 |
| Rab23 (GeneID 40701) | DRSC12305 | 0.481 | -0.0245 | – |
| MESK2 + CG10494 | DRSC04259 | 0.192 | 0.596 | – |
| CG11906 (GeneID 37209) | DRSC06096 | 0.51 | -3.84 | – |
| CG6689 (GeneID 41345) | DRSC16095 | -0.00163 | 9.1 | – |
| ScsbetaA (GeneID 41067) | DRSC14446 | -0.1 | -1.07 | – |
| side-VI (GeneID 4379854) | DRSC14920 | -1.52 | -1.07 | – |
| side-VI (GeneID 4379854) | DRSC15624 | 2.25 | 2.57 | – |
| side-VI (GeneID 4379854) | DRSC23088 | 0.632 | 3.68 | – |
| CG11586 (GeneID 38520) | DRSC08203 | -2.38 | -0.0934 | 0.7 |
| Spn27A (GeneID 45815) | DRSC03608 | -2.27 | -0.11 | – |
| CG9649 (GeneID 41727) | DRSC16534 | 0.774 | -0.0385 | – |
| Cyp308a1 (GeneID 32859) | DRSC20238 | -0.116 | 0.174 | – |
| CG17754 (GeneID 31873) | DRSC18131 | 2.6 | 0.00225 | 0.0568 |
| CG3699 (GeneID 31046) | DRSC18171 | 0.972 | -0.454 | – |
| CG3699 (GeneID 31046) | DRSC18642 | 1.49 | -0.404 | – |
| Nha1 (GeneID 33961) | DRSC02109 | 0.263 | -0.389 | – |
| PK1-R (GeneID 41713) | DRSC16577 | -0.414 | 0.174 | – |
| CG14194 (GeneID 32908) | DRSC19549 | 1.08 | 0.731 | – |
| CG10750 (GeneID 35206) | DRSC02105 | 0.398 | -0.304 | – |
| Mco4 (GeneID 326221) | DRSC20061 | 1.45 | -0.296 | – |
| spi (GeneID 35253) | DRSC03618 | -0.377 | 0.436 | – |
| Uev1A (GeneID 38613) | DRSC09763 | 0.71 | -1.35 | – |
| wda (GeneID 42750) | DRSC15579 | 0.737 | 0.447 | -0.0344 |
| wda (GeneID 42750) | DRSC22351 | 0 | 1.54 | – |
| SIDL (GeneID 41833) | DRSC16077 | 1.28 | 0.57 | – |
| Irk3 (GeneID 35131) | DRSC02047 | -0.687 | 2.11 | – |
| CG14551 (GeneID 43171) | DRSC14894 | -0.0117 | -1.39 | – |
| CG15742 (GeneID 32276) | DRSC19708 | -0.598 | -0.808 | -1.35 |
| CG12118 (GeneID 31857) | DRSC17813 | 0.867 | -0.0562 | -0.945 |
| mRpL1 (GeneID 40980) | DRSC16251 | 2.03 | 2.46 | – |
| ps (GeneID 44258) | DRSC15149 | -0.0527 | 0.35 | – |
| ps (GeneID 44258) | DRSC15151 | 1.26 | 0.631 | – |
| ps (GeneID 44258) | DRSC15152 | -0.0843 | 2.19 | – |
| ps (GeneID 44258) | DRSC16388 | 1.99 | 1.83 | – |
| ps (GeneID 44258) | DRSC22989 | -1.77 | 1.89 | – |
| Su(z)12 (GeneID 48071) | DRSC11293 | 2.39 | 1.25 | – |
| CG13461 (GeneID 39635) | DRSC10008 | -1.24 | -0.229 | – |
| PPO1 (GeneID 37044) | DRSC05929 | -0.461 | -0.325 | – |
| AP-1-2beta (GeneID 32987) | DRSC19336 | -0.0681 | 0.34 | – |
| CG11562 (GeneID 33200) | DRSC00316 | -0.934 | 0.198 | – |
| Acbp6 (GeneID 38782) | DRSC10217 | 0.537 | 0.695 | – |
| CycT (GeneID 39961) | DRSC11124 | -0.0984 | 1.91 | -0.705 |
| CycT (GeneID 39961) | DRSC23304 | -0.133 | 0.0269 | – |
| CG12682 (GeneID 31415) | DRSC17873 | 0.322 | -0.673 | – |
| Su(dx) (GeneID 33379) | DRSC00791 | -2.42 | -3.55 | – |
| hob (GeneID 38395) | DRSC08426 | 0.837 | 0.723 | – |
| ttm2 (GeneID 38049) | DRSC08268 | -1.19 | 2.25 | – |
| SmF (GeneID 36314) | DRSC07397 | -0.46 | -0.238 | – |
| l(2)k09848 (GeneID 35536) | DRSC04894 | 0.491 | -0.00753 | – |
| CG5084 (GeneID 37051) | DRSC06913 | 1.73 | 2.88 | – |
| CG12546 (GeneID 40483) | DRSC11676 | -1.81 | -2.55 | – |
| Cys (GeneID 41767) | DRSC16637 | -0.198 | -2.37 | – |
| PCID2 (GeneID 39306) | DRSC10822 | 0.742 | 5.45 | – |
| DIP-iota (GeneID 33925) | DRSC02140 | -1.54 | 1.77 | – |
| CG11425 (GeneID 40472) | DRSC11657 | 0.527 | 0.268 | – |
| BRWD3 (GeneID 42898) | DRSC15369 | -1.08 | 0.153 | – |
| BRWD3 (GeneID 42898) | DRSC16032 | 1.17 | -1.07 | – |
| mei-P26 (GeneID 45775) | DRSC17735 | -2.71 | -2.2 | -0.837 |
| mei-P26 (GeneID 45775) | DRSC23049 | -0.0257 | -0.0398 | – |
| CG1902 (GeneID 35993) | DRSC06798 | 1.48 | 0.92 | – |
| CG9555 (GeneID 34223) | DRSC03264 | -2.41 | -1.4 | – |
| BicD (GeneID 35051) | DRSC02006 | 0.796 | 0.66 | – |
| alphaTry (GeneID 48316) | DRSC07577 | 0.826 | 1.3 | – |
| und (GeneID 34294) | DRSC03629 | 1.35 | -0.0652 | – |
| CG15483 (GeneID 34687) | DRSC02493 | – | 0.132 | – |
| Lsm10 (GeneID 36141) | DRSC06250 | -0.817 | -1.32 | – |
| ric8b + ric8a | DRSC18104 | -0.0203 | -0.375 | -1.28 |
| Dip-B (GeneID 48450) | DRSC16466 | -2.89 | 0.857 | – |
| Smug (GeneID 42078) | DRSC15762 | 0.164 | 0.0373 | – |
| Tsp97E (GeneID 43241) | DRSC16019 | -0.691 | – | – |
| CG15356 (GeneID 33370) | DRSC00386 | -1.34 | 1.1 | – |
| CG13376 (GeneID 3346142) | DRSC17901 | -0.964 | -2.37 | – |
| DIP1 (GeneID 43981) | DRSC20818 | -0.0117 | -1.61 | – |
| btv (GeneID 35073) | DRSC01615 | 0.0442 | – | – |
| btv (GeneID 35073) | DRSC02449 | -0.586 | -1.19 | – |

Already shown: entries from further up.
| gene | dsRNA | droplet/nuclear area B-score, replicate 1 | droplet/nuclear area B-score, replicate 2 | droplet/nuclear area B-score, replicate 3 |
| --- | --- | --- | --- | --- |
| anchor (GeneID 39965) | DRSC10861 | -1.51 | -0.208 | 0.827 |
| Rab23 (GeneID 40701) | DRSC12305 | 0.481 | -0.0245 | – |
| MESK2 + CG10494 | DRSC04259 | 0.192 | 0.596 | – |
| CG11906 (GeneID 37209) | DRSC06096 | 0.51 | -3.84 | – |
| CG6689 (GeneID 41345) | DRSC16095 | -0.00163 | 9.1 | – |
| ScsbetaA (GeneID 41067) | DRSC14446 | -0.1 | -1.07 | – |
| side-VI (GeneID 4379854) | DRSC14920 | -1.52 | -1.07 | – |
| side-VI (GeneID 4379854) | DRSC15624 | 2.25 | 2.57 | – |
| side-VI (GeneID 4379854) | DRSC23088 | 0.632 | 3.68 | – |
